In brackets after ≈: the same amount, converted by molar mass.

Protein sequences, listed by entry. Tags and fused reporters are not part of them. Lines headed by an entry give the natural chain unless they say otherwise; changes in a name come on top.
UniProt Q12809: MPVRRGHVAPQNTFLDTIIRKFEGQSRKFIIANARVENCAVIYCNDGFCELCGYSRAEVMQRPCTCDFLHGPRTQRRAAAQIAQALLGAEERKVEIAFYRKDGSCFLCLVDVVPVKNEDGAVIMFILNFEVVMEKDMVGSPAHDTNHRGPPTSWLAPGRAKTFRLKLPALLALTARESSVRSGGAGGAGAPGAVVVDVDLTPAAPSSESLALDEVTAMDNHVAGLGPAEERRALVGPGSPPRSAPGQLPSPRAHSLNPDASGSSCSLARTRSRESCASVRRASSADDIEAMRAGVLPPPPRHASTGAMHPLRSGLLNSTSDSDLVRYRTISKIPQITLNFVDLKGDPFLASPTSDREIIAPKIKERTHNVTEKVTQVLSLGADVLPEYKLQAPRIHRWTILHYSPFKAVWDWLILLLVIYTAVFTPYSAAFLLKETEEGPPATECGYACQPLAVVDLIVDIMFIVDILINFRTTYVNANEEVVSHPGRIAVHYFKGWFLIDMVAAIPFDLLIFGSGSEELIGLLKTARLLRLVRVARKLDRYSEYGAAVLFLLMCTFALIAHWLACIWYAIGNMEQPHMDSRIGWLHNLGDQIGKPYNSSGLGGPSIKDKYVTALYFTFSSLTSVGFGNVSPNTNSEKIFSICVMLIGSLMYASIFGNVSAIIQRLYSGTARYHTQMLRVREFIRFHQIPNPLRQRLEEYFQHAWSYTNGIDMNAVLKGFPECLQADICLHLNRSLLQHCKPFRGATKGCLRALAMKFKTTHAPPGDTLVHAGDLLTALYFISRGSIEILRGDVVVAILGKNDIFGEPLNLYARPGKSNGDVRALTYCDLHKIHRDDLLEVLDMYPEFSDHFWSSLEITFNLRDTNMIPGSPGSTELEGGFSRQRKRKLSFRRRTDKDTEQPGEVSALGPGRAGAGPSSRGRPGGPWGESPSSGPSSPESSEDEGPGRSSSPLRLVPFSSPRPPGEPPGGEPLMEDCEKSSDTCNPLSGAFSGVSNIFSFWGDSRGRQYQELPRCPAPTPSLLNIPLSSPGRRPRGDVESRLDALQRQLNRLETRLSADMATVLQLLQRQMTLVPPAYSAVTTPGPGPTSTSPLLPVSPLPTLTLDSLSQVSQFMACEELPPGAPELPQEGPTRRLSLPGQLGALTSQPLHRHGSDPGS

The target in series [1] is Voltage-gated inwardly rectifying potassium channel KCNH2 (Homo sapiens, UniProt Q12809).
Series [2] can be described thus: physchem. The settings on record: buffer, pH 2.2.
Series [3] in a line: physchem. The settings on record: buffer, pH 4.5.
Series [4] can be described thus: physchem. The settings on record: buffer, pH 6.8.

Molecule `CC(C)(C)OC(=O)N1CCCC(COC(=O)N2C[C@@H]3[C@@H](CNC(=O)c4ccc5[nH]c(=O)oc5c4)[C@@H]3C2)C1` (stereo partly drawn) registered an IC50 in series [1] above 10 µM. Also, the results for the solubility at 24 h in “physchem [2]”, in the series “physchem [3]” and in “physchem [4]” were 48 µg/mL (≈ 93.3 µM), 36 µg/mL (≈ 70 µM) and 25 µg/mL (≈ 48.6 µM), respectively.

In turn, `N#Cc1cc(COC(=O)N2C[C@@H]3[C@@H](CNC(=O)NCCCc4cnn[nH]4)[C@@H]3C2)cc(C(=O)OC(F)(F)F)c1` had an IC50 in series [1] above 10 µM. The solubility at 24 h in “physchem [2]” was 75 µg/mL (≈ 140 µM); in the series “physchem [3]” it was 70 µg/mL (≈ 131 µM); in the series “physchem [4]” it was 66 µg/mL (≈ 123 µM).

By IC50 is commonly meant the concentration needed to halve the response being measured. In general, solubility refers to the dissolved amount per volume that the medium holds.
